Source: PubChem BioAssay AID1918924 (NCATS, 2023).

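FR4_PLB multiple myeloma cell line, with viability read as ATP-driven CellTiter-Glo luminescence after 48 hours of drug exposure. Each drug ran as a concentration series, mostly up to about 45.8 µM. The value is the fitted AC50, the concentration giving half of the maximal effect; a lower number means a more potent drug. Calls come from the NCATS curve class and activity score: inconclusive covers scores 1 to 39, meaning weak, poorly fitted, top-dose-only or opposite-direction curves.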

Values are in nM. Every entry below has the call inconclusive. These entries are mostly ones the record files as inconclusive; other results of the assay are not listed here. A potency from a partial, single-point or poor curve is only a rough figure. Some entries filed as inconclusive have a full curve. The first word of each remark tells which way the curve ran; it can be opposite to the aim of the assay. Activity scores are not listed here.

structure	Potency (nM)	remark
CN(C)CCOc1cc(-c2cn[nH]c2)ccc1NC(=O)C1COc2ccccc2O1 (stereo unspecified)	209.3	rising, full curve
COc1cc(C[C@@H](CO)[C@H](CO)Cc2ccc(O)c(OC)c2)ccc1O	166.3	rising, full curve, poor fit
COc1cccc(-c2ccc(NC(=O)C3=C(C(=O)O)CCC3)c(F)c2)c1	117.7	cytotoxic, full curve, poor fit
O=C1Cc2cc(CCN3CCN(c4nsc5ccccc45)CC3)c(Cl)cc2N1	29565	cytotoxic, single point
COc1cc(Nc2nc3ccccc3nc2NS(=O)(=O)c2ccc(NC(=O)c3ccc(C)c(OC)c3)cc2)cc(OC)c1	18654	cytotoxic, partial curve
Cn1c(N2CCCCS2(=O)=O)nc(C(=O)NCc2ccc(F)cc2)c(O)c1=O	37221	cytotoxic, single point
COc1cc(F)c(F)c(Nc2ccc(I)cc2F)c1NS(=O)(=O)C1(C[C@H](O)CO)CC1	9350	cytotoxic, partial curve, poor fit
CN1CCN(c2cccc(Nc3nc4c(-c5ccc(S(C)(=O)=O)cc5)cccn4n3)c2)CC1	37221	cytotoxic, single point
Nc1ccc(S(=O)(=O)Nc2ccnn2-c2ccccc2)cc1	1.9	cytotoxic, full curve, poor fit
O=C1Nc2ccc(Cl)cc2C(C#CC2CC2)(C(F)(F)F)O1 (stereo unspecified)	11.8	rising, full curve, poor fit
C[C@@H]1[C@H](O)[C@@H](C)C=CC=CC=CC=CC=CC=CC=C[C@H](O[C@@H]2O[C@H](C)[C@H](O)[C@H](N)[C@@H]2O)C[C@@H]2O[C@](O)(C[C@@H](O)C[C@@H](O)[C@H](O)CC[C@@H](O)C[C@@H](O)CC(=O)O[C@H]1C)C[C@H](O)[C@@H]2C(=O)O	93.5	rising, partial curve, poor fit
Cc1ccc(CN2CCNCC2)cc1NC(=O)CNc1ccc(F)c(F)c1	33173	cytotoxic, single point
Cn1cnc2c(F)c(Nc3ccc(Br)cc3Cl)c(C(=O)NOCCO)cc21	16626	cytotoxic, partial curve
NC(=O)c1ccc(-c2nc(-c3ccc4c(c3)OCCO4)c(-c3ccccn3)[nH]2)cc1	23484	cytotoxic, single point
COc1cc(N2CCC(N3CCN(C)CC3)CC2)ccc1Nc1ncnc(Nc2ccccc2S(=O)(=O)C(C)C)n1	37221	cytotoxic, single point
Cc1nc(C(=O)NCC(=O)O)c(O)c2ccc(Oc3ccccc3)cc12	29565	cytotoxic, partial curve, poor fit
CCn1c(C(=O)N(C2CC2)C2CC2)cc2c3c(ncn3C)c(Nc3cc(C)n(C)n3)nc21	37221	cytotoxic, single point
CCNC(=O)Nc1ccc2ncc(Nc3ccc(C)cc3)nc2n1	33173	cytotoxic, single point
Nc1ccc(-c2ccc3ncc4ccc(=O)n(-c5cccc(C(F)(F)F)c5)c4c3c2)cn1	10.5	cytotoxic, full curve
N#Cc1ccc(Oc2ccc3c(c2)COB3O)cc1	5.9	rising, full curve, poor fit
CC1(C)Cc2c(-c3ccccc3)c(-c3ccc(Cl)cc3)c(CC(=O)O)n2C1	26350	cytotoxic, partial curve, poor fit
O=c1cc(CN2CCOCC2)occ1OCCCCCSc1ccnc2cc(C(F)(F)F)ccc12	23484	cytotoxic, single point
CCC(C)n1ncn(-c2ccc(N3CCN(c4ccc(OC[C@H]5CO[C@](Cn6cncn6)(c6ccc(Cl)cc6Cl)O5)cc4)CC3)cc2)c1=O (stereo partly specified)	8333	cytotoxic, partial curve
CC(C)(C)Cn1c(N)nc2ccc(-c3[nH]c(C(C)(C)C)nc3-c3ccc(F)cc3)nc21	26350	cytotoxic, single point
COC(=O)[C@@H]1[C@H]2C[C@@H]3c4[nH]c5ccccc5c4CCN3C[C@@H]2CC[C@@H]1O	1	-
C=C(c1ccc(C(=O)O)cc1)c1cc2c(cc1C)C(C)(C)CCC2(C)C	23484	rising, partial curve, poor fit
CN(C)c1ccc(C2Nc3ccc4ccccc4c3C3=C2C(=O)CC(C)(C)C3)cc1Br (stereo unspecified)	18654	cytotoxic, partial curve
CNC(=O)c1ccc(-c2cnc3ncc(Cc4ccc5ncccc5c4)n3n2)cc1F	33173	cytotoxic, single point
O=NN(CCCl)C(=O)NCCCl	7427	rising, partial curve, poor fit
COc1cc(N2CCC(N3CCN(C)CC3)CC2)ccc1Nc1ncc(Cl)c(Nc2ccccc2S(=O)(=O)C(C)C)n1	33173	cytotoxic, partial curve, poor fit
NC(=O)c1ccc2[nH]ccc2c1	1321	cytotoxic, partial curve, poor fit
NC(=O)c1nnn(Cc2cc(Cl)c(C(=O)c3ccc(Cl)cc3)c(Cl)c2)c1N	33173	cytotoxic, single point

Once more, the final 4:

| structure | Potency (nM) | remark |
|---|---|---|
| `O=NN(CCCl)C(=O)NCCCl` | 7427 | rising, partial curve, poor fit |
| `COc1cc(N2CCC(N3CCN(C)CC3)CC2)ccc1Nc1ncc(Cl)c(Nc2ccccc2S(=O)(=O)C(C)C)n1` | 33173 | cytotoxic, partial curve, poor fit |
| `NC(=O)c1ccc2[nH]ccc2c1` | 1321 | cytotoxic, partial curve, poor fit |
| `NC(=O)c1nnn(Cc2cc(Cl)c(C(=O)c3ccc(Cl)cc3)c(Cl)c2)c1N` | 33173 | cytotoxic, single point |